Results: the M2OR odorant receptor database
This is a selection; strong and weak results do not stand in their true shares. Calls are pooled over several reports, among them a noisy single-well screen. The list shows a part of the results.

Protein sequences, listed by entry. Tags and fused reporters are not part of them. Lines headed by an entry give the natural chain unless they say otherwise; changes in a name come on top.
UniProt Q8NGI0: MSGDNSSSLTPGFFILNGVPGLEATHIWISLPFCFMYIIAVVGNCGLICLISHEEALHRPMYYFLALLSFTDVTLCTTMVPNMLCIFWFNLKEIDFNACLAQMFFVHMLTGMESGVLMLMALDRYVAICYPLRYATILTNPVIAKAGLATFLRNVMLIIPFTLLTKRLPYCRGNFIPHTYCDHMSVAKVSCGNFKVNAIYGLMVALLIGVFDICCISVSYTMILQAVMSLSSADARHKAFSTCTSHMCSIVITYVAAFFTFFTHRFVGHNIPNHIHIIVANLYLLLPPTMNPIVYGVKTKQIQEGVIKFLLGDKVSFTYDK
UniProt Q8NGF1: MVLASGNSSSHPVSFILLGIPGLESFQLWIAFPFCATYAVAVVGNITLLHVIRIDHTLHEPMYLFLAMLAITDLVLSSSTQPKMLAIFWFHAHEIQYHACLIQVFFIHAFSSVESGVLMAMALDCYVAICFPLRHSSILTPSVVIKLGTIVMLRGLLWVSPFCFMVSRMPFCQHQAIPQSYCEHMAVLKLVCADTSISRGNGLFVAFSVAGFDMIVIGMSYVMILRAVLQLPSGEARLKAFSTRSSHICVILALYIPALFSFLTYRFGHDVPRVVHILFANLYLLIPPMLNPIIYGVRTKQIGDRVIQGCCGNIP

Key:
Details in all cases: stereoisomer not certain
[1] = target: T1, OR52N5 (Homo sapiens) (UniProt Q8NH56)
T1 sequence (whole entry): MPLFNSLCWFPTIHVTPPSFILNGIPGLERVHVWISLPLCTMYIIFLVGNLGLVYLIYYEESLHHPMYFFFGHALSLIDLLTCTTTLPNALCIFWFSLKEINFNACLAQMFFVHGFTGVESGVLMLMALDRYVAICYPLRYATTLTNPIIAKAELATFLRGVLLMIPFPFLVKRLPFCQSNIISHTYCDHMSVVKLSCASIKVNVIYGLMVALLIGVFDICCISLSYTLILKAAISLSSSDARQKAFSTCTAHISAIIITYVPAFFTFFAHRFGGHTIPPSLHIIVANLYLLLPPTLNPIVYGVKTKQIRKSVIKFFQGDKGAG
Outline: (§1)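 Assay methods differ from source to source, frequently being transient luciferase assays in mammalian cell lines. For each receptor–molecule pair, the label responsive (active) applies when the original authors judged the measured signal statistically different from baseline, and non-responsive (inactive) applies otherwise.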

[2] = target: T2, OR56A1 (Homo sapiens) (UniProt Q8NGH5)
T2 sequence (whole entry): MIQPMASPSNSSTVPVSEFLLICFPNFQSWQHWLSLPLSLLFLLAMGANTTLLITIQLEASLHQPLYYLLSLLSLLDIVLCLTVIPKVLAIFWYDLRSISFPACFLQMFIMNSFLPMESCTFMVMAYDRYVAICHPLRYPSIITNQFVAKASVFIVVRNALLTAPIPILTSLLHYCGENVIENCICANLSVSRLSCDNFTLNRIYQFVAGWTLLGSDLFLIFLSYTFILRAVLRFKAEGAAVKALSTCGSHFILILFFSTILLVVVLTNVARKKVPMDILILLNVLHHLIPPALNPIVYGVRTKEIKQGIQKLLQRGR
Outline: as §1

[3] = target: T3, OR56A4 (Homo sapiens) (UniProt Q8NGH8)
T3 sequence (whole entry): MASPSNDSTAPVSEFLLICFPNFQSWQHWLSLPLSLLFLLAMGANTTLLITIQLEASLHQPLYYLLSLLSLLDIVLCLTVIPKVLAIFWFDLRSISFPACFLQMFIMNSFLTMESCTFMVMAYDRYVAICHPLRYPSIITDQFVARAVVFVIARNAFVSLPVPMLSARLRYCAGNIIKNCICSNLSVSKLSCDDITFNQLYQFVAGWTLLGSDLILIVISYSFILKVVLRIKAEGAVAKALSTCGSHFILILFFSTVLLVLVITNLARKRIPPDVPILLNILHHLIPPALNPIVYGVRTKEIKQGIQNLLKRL
Outline: as §1

[4] = target: T4, OR56A5 (Homo sapiens) (UniProt P0C7T3)
T4 sequence (whole entry): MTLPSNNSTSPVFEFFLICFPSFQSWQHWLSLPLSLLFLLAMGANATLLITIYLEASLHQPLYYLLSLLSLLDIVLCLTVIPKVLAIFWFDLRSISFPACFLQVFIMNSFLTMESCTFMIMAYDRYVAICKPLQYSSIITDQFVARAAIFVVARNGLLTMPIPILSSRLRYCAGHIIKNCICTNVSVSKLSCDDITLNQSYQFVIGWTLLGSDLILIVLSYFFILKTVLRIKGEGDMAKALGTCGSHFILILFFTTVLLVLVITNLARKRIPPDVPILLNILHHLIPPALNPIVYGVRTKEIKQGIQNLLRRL
Outline: as §1

[5] = tested on: T5, OR5A1
T5 sequence (whole entry): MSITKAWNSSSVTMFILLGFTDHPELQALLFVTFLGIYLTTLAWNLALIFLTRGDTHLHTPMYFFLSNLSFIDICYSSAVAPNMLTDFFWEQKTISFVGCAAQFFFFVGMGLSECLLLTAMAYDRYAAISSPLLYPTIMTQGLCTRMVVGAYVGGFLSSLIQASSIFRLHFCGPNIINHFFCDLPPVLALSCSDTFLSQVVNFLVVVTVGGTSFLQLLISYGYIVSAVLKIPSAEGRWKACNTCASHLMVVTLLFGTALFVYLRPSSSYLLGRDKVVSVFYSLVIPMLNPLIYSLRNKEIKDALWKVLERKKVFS
Outline: as §1

[6] = tested on: T6, OR5A1; remark: listed apart in the source
T6 sequence (whole entry): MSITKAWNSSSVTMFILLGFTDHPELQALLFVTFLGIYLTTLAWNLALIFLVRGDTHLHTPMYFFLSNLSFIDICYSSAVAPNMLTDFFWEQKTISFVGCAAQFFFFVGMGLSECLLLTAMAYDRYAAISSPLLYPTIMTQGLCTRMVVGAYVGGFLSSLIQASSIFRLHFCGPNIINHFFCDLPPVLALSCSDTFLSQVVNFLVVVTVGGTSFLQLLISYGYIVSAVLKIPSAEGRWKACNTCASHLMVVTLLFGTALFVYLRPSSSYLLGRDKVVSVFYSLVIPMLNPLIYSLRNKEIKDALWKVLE
Outline: as §1

[7] = tested on: T7, OR5A1; remark: listed apart in the source
T7 sequence (whole entry): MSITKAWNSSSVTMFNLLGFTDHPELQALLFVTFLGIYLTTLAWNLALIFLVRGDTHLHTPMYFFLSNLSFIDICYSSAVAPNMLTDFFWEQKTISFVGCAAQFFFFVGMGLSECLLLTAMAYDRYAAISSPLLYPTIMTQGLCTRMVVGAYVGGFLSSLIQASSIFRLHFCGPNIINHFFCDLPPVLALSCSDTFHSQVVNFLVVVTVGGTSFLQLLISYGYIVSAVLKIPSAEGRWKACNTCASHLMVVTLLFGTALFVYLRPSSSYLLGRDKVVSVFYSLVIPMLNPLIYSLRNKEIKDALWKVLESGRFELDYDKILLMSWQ
Outline: as §1

[8] = target: T8, OR5A2 (Homo sapiens) (UniProt Q8NGI9)
T8 sequence (whole entry): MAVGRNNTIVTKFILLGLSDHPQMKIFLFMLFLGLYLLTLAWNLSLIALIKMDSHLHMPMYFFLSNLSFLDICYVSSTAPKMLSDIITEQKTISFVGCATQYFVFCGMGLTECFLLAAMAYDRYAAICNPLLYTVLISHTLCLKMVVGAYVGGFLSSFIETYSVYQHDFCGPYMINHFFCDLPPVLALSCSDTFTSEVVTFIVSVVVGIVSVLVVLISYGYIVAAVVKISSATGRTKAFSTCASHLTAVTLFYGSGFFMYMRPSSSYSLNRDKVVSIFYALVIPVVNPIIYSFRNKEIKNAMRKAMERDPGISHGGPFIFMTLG
Outline: as §1

[9] = target: T9, OR5AK2 (Homo sapiens) (UniProt Q8NH90)
T9 sequence (whole entry): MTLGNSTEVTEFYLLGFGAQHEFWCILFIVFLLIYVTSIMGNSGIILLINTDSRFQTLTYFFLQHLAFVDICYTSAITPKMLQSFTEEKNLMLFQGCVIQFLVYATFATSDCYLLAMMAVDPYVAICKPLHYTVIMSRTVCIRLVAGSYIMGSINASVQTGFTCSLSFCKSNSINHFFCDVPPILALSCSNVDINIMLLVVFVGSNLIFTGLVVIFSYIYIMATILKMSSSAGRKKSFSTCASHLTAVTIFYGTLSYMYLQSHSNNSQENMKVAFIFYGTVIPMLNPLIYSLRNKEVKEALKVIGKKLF
Outline: as §1

[10] = target: T10, OR52N1 (Homo sapiens) (UniProt Q8NH53)
T10 sequence (whole entry): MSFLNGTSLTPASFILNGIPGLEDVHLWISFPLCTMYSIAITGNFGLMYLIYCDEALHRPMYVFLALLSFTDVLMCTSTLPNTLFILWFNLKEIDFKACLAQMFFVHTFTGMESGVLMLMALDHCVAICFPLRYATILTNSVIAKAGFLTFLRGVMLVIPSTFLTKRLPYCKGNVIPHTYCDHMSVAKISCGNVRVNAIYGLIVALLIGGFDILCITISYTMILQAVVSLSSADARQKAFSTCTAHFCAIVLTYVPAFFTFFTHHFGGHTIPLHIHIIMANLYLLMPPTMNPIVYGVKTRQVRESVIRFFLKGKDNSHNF
Outline: as §1

[11] = target: OR52N2 (Homo sapiens) (UniProt Q8NGI0)
Outline: as §1

[12] = target: T11, OR52N4 (Homo sapiens) (UniProt Q8NGI2)
T11 sequence (whole entry): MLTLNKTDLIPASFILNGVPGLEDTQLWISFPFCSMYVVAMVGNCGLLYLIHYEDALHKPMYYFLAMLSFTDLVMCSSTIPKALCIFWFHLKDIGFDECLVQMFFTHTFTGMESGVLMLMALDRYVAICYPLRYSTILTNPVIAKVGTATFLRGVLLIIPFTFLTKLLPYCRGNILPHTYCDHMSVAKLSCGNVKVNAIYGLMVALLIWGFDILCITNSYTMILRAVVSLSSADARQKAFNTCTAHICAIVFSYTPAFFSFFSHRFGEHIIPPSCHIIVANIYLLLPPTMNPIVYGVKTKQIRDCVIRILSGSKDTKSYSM
Outline: as §1

[13] = target: OR52R1 (Homo sapiens) (UniProt Q8NGF1)
Outline: as §1

[14] = target: T12, OR52W1 (Homo sapiens) (UniProt Q6IF63)
T12 sequence (whole entry): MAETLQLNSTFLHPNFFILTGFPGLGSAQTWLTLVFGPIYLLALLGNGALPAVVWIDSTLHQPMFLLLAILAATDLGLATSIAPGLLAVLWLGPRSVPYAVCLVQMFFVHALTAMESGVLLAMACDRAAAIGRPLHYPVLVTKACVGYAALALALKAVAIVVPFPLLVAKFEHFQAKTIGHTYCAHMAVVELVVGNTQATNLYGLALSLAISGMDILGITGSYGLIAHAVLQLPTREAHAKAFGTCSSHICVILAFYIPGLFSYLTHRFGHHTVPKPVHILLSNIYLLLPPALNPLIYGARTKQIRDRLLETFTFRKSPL
Outline: as §1

[15] = target: T13, OR56A3 (Homo sapiens) (UniProt Q8NH54)
T13 sequence (whole entry): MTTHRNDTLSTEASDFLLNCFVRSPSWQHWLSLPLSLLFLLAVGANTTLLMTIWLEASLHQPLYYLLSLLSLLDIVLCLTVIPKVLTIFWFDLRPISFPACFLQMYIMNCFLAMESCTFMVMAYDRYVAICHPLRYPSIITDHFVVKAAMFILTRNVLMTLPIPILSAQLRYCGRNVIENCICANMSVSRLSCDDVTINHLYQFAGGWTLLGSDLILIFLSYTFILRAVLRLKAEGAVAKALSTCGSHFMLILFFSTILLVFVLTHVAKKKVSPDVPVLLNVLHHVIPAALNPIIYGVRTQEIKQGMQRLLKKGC
Outline: as §1

[16] = target: T14, OR56B1 (Homo sapiens) (UniProt Q8NGI3)
T14 sequence (whole entry): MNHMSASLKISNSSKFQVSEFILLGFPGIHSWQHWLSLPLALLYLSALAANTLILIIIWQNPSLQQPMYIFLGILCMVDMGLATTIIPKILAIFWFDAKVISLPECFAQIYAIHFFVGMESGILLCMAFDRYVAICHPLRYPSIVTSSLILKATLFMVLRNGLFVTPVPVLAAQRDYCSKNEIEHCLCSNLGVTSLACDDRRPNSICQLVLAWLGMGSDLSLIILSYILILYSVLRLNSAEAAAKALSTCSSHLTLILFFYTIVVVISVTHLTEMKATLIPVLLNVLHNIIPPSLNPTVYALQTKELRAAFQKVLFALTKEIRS
Outline: as §1

[17] = target: T15, OR56B4 (Homo sapiens) (UniProt Q8NH76)
T15 sequence (whole entry): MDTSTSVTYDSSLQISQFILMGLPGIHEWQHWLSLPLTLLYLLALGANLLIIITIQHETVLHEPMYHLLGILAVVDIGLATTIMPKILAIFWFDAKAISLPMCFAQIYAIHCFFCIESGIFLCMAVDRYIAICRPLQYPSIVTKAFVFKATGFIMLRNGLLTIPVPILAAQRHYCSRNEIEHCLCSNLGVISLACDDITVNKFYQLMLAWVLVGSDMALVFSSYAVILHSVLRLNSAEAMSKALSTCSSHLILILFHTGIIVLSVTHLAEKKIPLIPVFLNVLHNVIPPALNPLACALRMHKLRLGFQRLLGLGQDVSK
Outline: as §1

Measured: odorant receptor agonist call

COc1cc(C)ccc1O
inactive: [1] | [2] | [3] | [4] | [5] | [6] | [7] | [8] | [9]

CC(=O)C(C)=O
active: [14]
inactive: all other assays above

CC12CCC(CC1)C(C)(C)O2
inactive: [1] | [2] | [3] | [4] | [5] | [6] | [7] | [8] | [9]
